From ChEMBL document CHEMBL3988442, “University of Dundee, Small-Polar-MMV Screening Library” (2021).

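Whole-parasite assay of Trypanosoma brucei over 72 hours; the read-out is not stated. Concentration: 30 µM. The record gives no direction; compounds that gave an IC50 in retests scored well above the rest, so higher reads as stronger inhibition. Values scatter widely below zero; nearly all retest evidence comes from the higher of the two concentrations used. Size under these conditions: about 64,000 compounds, about 940 of them at 50% or above in at least one test.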

The filed quantity is “Percent Effect” (%).
The record does not define 0% and 100%; most values in the screen are far below 50% and negative numbers occur (in some assays of this library far below -100).
Compounds were drawn at random from those tested, without regard to their results.

{"smiles": "Cc1noc(C2CCN(Cc3cc(=O)n(C)c(=O)n3C)CC2)n1", "effect": 1.272}
{"smiles": "O=C(Nc1cc(C2CCOCC2)[nH]n1)c1ccc(Cl)cn1", "effect": -7.909}
{"smiles": "CCc1noc(C)c1C(=O)N1CCCN(Cc2csc(C)n2)CC1", "effect": 4.874}
{"smiles": "CO[C@@H]1CCN(Cc2cccs2)[C@H]1Cc1ccncc1", "effect": -4.962}
{"smiles": "COc1cccc(OCC2CCCN(C(=O)c3cnn(C)c3)C2)c1", "stereo": "stereo not shown", "effect": -73.17}
{"smiles": "O=C(O)c1ccccc1-n1cnc(CN2CCCc3ccccc32)c1", "effect": -15.7}
{"smiles": "[H][C@@]12CCN(C(=O)c3nnc4n3CCCCC4)C[C@@]([H])(CC1)N2C", "effect": -0.5215}
{"smiles": "Cc1cc(NC(=O)Cn2cc(C#N)c(=O)c3cc(Br)ccc32)no1", "effect": -0.4747}
{"smiles": "CC(C)c1cc(C(=O)N2CCC3(CC2)c2ccccc2[C@@H](N)[C@@H]3O)cs1", "effect": 21.81}
{"smiles": "CCc1noc(C2CCCCN2C(=O)c2cccs2)n1", "stereo": "stereo not shown", "effect": -25.92}
{"smiles": "CCOc1ccc(CN2CCN(C(=O)c3cc(C4CC4)[nH]n3)CC2)cc1", "effect": -13.15}
{"smiles": "Cc1ccn(Cc2nc(CC(C)C)no2)c(=O)c1", "effect": -22}
{"smiles": "CCNC(=O)CNCc1c(C(C)C)nn(C)c1N1CCOCC1", "effect": -9.007}
{"smiles": "O=C(NCc1cccs1)NCC(O)(c1cccs1)C1CC1", "stereo": "stereo not shown", "effect": 0.5901}
{"smiles": "CN(CCS(=O)(=O)c1cc(Cl)ccc1Cl)CC(=O)Nc1cccc(F)c1", "effect": -17.26}
{"smiles": "CCOC(=O)NCCC(=O)NCc1ccc(Oc2cccc(F)c2)nc1", "effect": -26.88}
{"smiles": "O=C1CC(c2cccnc2)c2c(c(C(=O)O)cn2-c2ccccc2)N1", "stereo": "stereo not shown", "effect": 41.58}
{"smiles": "CCOC(=O)c1n[nH]cc1-c1cncn1CCn1nc(C)c(Cl)c1C", "effect": -10.05}
{"smiles": "CN1CCC(NCC2(O)CCCN(Cc3ccccc3F)C2=O)CC1", "stereo": "stereo not shown", "effect": 1.149}
{"smiles": "COCC(=O)N1CCCC1c1nc(O)cc(C(C)C)n1", "stereo": "stereo not shown", "effect": -13.87}
{"smiles": "CCN1CCN(S(=O)(=O)c2ccc(Cc3cc(C)n[nH]c3=O)cc2)CC1", "effect": -9.007}
{"smiles": "Cc1ccc(CC2CCCN(S(C)(=O)=O)C2)nc1", "stereo": "stereo not shown", "effect": -13.92}
{"smiles": "O=C1NCC2(CCCN(C(=O)c3ccc4c(c3)CCCO4)CC2)O1", "stereo": "stereo not shown", "effect": 4.39}
{"smiles": "Cc1sc2nc(SC(C)c3nc(C(C)C)no3)nc(N)c2c1C", "stereo": "stereo not shown", "effect": -9.492}
{"smiles": "O=C(O)C(F)(F)F.O=C(O)C(F)(F)F.O=C(O)C(F)(F)F.[H][C@@]12CO[C@@H](CN3CCN(C)CC3)[C@]1([H])CCN(Cc1ccsc1)C2", "effect": -10.03}
{"smiles": "CC(C(=O)NCc1ccnc(N(C)C)c1)n1cncn1", "stereo": "stereo not shown", "effect": 3.838}
{"smiles": "NC(=O)c1ccc(C2CN(Cc3ccc(F)cc3)CCO2)nc1", "stereo": "stereo not shown", "effect": -38.78}
{"smiles": "CNC(=O)C1CCCN1c1nc(C)c2ccccc2n1", "stereo": "stereo not shown", "effect": -18.83}
{"smiles": "O=C(O)C(F)(F)F.O=C(O)C(F)(F)F.[H][C@]12CCC[C@@]1(COc1ccccn1)CN(C(=O)c1ccc(C)cn1)C2", "effect": 43.42}
{"smiles": "Cc1cnn(CC2CN(Cc3cccc(C(=O)N(C)C)c3)CCO2)c1", "stereo": "stereo not shown", "effect": 4.099}
{"smiles": "CCCc1nnc(N(C)CC2CCN(CC(C)C)CC2)o1", "effect": -5.584}
{"smiles": "c1cnnc(N2CCCC2CNCc2csc(-c3ccco3)n2)c1", "stereo": "stereo not shown", "effect": 17.07}
{"smiles": "CSc1nsc(NC(=O)N(C)Cc2ccc3c(c2)OCO3)n1", "effect": -5.158}
{"smiles": "NC(=O)CN1CCC(OCc2ccc(Cl)c(Cl)c2)CC1", "effect": -21.31}
{"smiles": "O=C(O)C(F)(F)F.O=C(O)C(F)(F)F.[H][C@@]12CCN(Cc3nccs3)C[C@]1([H])O[C@@H](C(=O)Nc1cccnc1)C2", "effect": -3.036}
{"smiles": "CN(CCO)Cc1nnc(C2CCN(C(=O)c3cccn3C)CC2)n1C", "effect": -6.735}
{"smiles": "CC(=O)N[C@H](C)c1c(-c2ccc(Cl)cc2)noc1C(=O)O", "effect": -8.657}
{"smiles": "Cc1cc(C)n(CCCn2cncc2-c2ccc3c(c2)CC(C)N3C)n1.Cl", "stereo": "stereo not shown", "effect": 83.42}
{"smiles": "CCc1c(C)nn(CC(=O)NC(C(=O)O)c2c(C)n[nH]c2C)c1C", "stereo": "stereo not shown", "effect": -39.44}
{"smiles": "CC(Cn1cncn1)NC(=O)NCC(C)(C)Cc1ccccc1", "stereo": "stereo not shown", "effect": -18.52}
{"smiles": "O=C(O)C(F)(F)F.O=C(O)C(F)(F)F.[H][C@@]12CN(Cc3nccn3C)C[C@]1([H])OCCN2Cc1c(C)noc1C", "effect": -5.171}
{"smiles": "CCc1cc(N[C@H]2CCC[C@H]2O)n2nccc2n1", "effect": -34.64}
{"smiles": "O=C(Nc1ccccc1F)C1CN(C(=O)c2ccc3c(c2)OCO3)C1", "effect": 11.18}
{"smiles": "COc1cc2c(cc1OC)CN(C(=O)Cn1nc(C)cc1C)CC2", "effect": -5.987}
{"smiles": "Cc1ccccc1C(NC(=O)NCC1(O)CCC1)C1CC1", "stereo": "stereo not shown", "effect": -2.407}
{"smiles": "[H][C@]12CC[C@]([H])(CN(Cc3[nH]cnc3C)C1)N(C(=O)CCNS(C)(=O)=O)C2", "effect": 3.155}
{"smiles": "CC(C)n1nc(CN2CCOCC2)c2c1CN(C(=O)c1ccno1)C2.O=C(O)C(F)(F)F", "effect": -51.99}
{"smiles": "O=C(c1ccncc1)N1CCN(C(=O)c2coc3ccccc23)CC1", "effect": -26.16}
{"smiles": "[H][C@]12CC[C@]([H])(CN(C(=O)c3cccnc3)C1)N(Cc1ccccc1C#N)C2", "effect": -30.02}
{"smiles": "[H][C@]12CC[C@@]3(N=C(c4ccccc4)NC3=O)[C@@]1([H])CN(C(=O)NCC(C)C)C2", "effect": -5.481}
{"smiles": "CCN(C(=O)Cc1ccc(NCc2ncc[nH]2)cc1)c1ccccc1", "effect": -6.62}
{"smiles": "O=C(O)C(F)(F)F.[H][C@@]12C[C@H](C(=O)NC3CC3)CN(CC3CC3)[C@]1([H])CCO2", "effect": -53.15}
{"smiles": "[H][C@@]12CN(S(=O)(=O)N3CCCC3)C[C@]1([H])N(CCc1cccc(Cl)c1)C(=O)O2", "effect": 1.232}
{"smiles": "[H][C@]12CC[C@]([H])(CN(Cc3[nH]cnc3C)C1)N(C(=O)CCc1cccnc1)C2", "effect": -21.46}
{"smiles": "Cc1nc(C)n(CC2CCCN(CCCOc3ccc(F)cc3)C2)n1", "stereo": "stereo not shown", "effect": -12.17}
{"smiles": "CCC[C@@H]1CN(Cc2cc(C#N)n(C)c2C)C[C@H]1NS(C)(=O)=O", "effect": 0.9985}
{"smiles": "[H][C@@]12CCN(C(=O)C3CC3)[C@]1([H])C(=O)N(c1ccccc1)C(=O)N2", "effect": -2.427}